Data published in paper PMC5540934.
These are yes or no findings as the source states them, for the method shown. A result given as binding can be weak or reduced; the word gives no strength.

Amino acid sequences for entries named in this document (tags omitted). A change or cut given only in a name is not applied to a line headed by its entry. Residues count along the entry.
UniProt P11362, residues 22-376: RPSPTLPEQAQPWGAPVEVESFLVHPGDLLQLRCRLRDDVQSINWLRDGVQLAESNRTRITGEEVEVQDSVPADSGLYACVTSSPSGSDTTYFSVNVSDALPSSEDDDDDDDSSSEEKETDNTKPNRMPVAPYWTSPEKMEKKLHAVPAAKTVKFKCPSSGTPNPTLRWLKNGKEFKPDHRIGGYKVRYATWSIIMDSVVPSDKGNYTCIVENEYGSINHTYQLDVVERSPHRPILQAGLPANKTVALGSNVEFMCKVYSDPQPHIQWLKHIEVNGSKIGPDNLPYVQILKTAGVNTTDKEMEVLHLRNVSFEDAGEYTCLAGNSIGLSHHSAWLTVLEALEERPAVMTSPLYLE
UniProt Q86Z14: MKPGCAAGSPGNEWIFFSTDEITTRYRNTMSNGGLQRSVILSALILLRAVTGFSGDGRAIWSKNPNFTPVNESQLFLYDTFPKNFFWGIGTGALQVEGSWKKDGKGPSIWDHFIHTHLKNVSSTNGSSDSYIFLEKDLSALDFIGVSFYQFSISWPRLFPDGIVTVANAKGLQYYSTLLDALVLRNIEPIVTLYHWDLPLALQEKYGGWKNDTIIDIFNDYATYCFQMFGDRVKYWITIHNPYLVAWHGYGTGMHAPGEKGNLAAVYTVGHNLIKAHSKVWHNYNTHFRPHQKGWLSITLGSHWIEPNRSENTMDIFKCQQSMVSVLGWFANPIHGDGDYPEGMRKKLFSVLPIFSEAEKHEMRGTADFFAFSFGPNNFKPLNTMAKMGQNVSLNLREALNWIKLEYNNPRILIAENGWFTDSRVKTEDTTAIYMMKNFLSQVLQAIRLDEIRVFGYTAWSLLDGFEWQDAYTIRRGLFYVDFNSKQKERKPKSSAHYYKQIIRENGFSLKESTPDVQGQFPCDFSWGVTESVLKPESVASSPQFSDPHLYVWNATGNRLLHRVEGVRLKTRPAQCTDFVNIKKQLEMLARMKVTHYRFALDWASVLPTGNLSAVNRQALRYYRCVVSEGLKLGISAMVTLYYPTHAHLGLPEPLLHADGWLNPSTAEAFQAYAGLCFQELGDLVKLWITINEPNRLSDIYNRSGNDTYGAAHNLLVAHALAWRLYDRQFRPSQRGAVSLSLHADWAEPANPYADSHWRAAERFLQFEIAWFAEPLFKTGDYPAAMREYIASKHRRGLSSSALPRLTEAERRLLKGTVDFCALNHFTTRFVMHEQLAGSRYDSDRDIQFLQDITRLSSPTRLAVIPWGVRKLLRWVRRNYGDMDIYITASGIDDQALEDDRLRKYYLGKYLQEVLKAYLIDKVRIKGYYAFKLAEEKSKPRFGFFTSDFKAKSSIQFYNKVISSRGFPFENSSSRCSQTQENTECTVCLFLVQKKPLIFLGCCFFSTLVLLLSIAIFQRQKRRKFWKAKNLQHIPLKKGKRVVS

Target: Full length extracellular part of FGFR1 fused with Fc fragment (FGFR1 D1-D2-D3-Fc) (UniProt P11362)
Assay: BLI; Octet RED K2; FGFR1 D1-D3-Fc (10 µg/ml) chemically immobilised on AR2G biosensors; β-Klotho 11 µg/ml, alone or after and with excess scFv proteins (30 µg/ml); both purified

## Human β-Klotho (from UniProt Q86Z14) (receptor)
  binding: binds
